# Reference: PubChem BioAssay AID2417 (National Center for Advancing Translational Sciences (NCATS), 2010)
# Out of some 140,000 compounds screened, about 4,300 (3.1%) were called active. The shares of active, inactive and inconclusive entries below differ from those in the screen.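 The calls were made as follows: active = readout at or below -70, meaning at least 70% loss of cells showing the perinucleolar compartment, a nuclear body marking cancer cells; inconclusive = readout between -30 and a set limit; inactive = the rest.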
# Experiment: High Content Assay for Compounds that inhibit the Assembly of the Perinucleolar Compartment;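 also: plate controls were DMSO wells for no effect and camptothecin positive control wells for full effect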
# Details: PC3M PTB-GFP, PNC prevalence imaging, 16 h; at 10 µM; stronger effect = lower value
# How it was run: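 PC3M cells stably expressing PTB-GFP, 750–1000 cells/well, treated 16 h at 37 °C with compound (23 nl of library stock), in duplicate. After paraformaldehyde fixation and Hoechst stain, imaged at 20x; PNC prevalence scored by image analysis.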
row,Structure (SMILES),"activity change (PNC), negative = inhibition"
1,CCOC(=O)c1nn(-c2ccc(Cl)cc2)c2nnc(Cc3ccccc3)c(=O)n12,inactive: -4.83%
2,COc1ccc(C(C(=O)NC2CCCCC2)N(Cc2cccs2)C(=O)Cc2c[nH]c3ccccc23)cc1OC (stereo unspecified),inconclusive: -52.7%
3,Cc1[nH]cnc1CSCc1ccc(F)cc1,inconclusive: -30.5%
4,CCN1C(=O)c2ccccc2Sc2ccc(C(=O)NCCN3CCOCC3)cc21,inconclusive: -32.9%
5,O=C(Nc1ccccc1)C1(c2ccccc2)CC1(Cl)Cl (stereo unspecified),inconclusive: -62.5%
6,O=c1cc(-c2ccccc2)[nH][nH]1,inconclusive: -63.1%
7,Cc1ccc(Cn2nnc(C(=O)Nc3cccc(C)c3C)c2N)cc1,inconclusive: -34.5%
8,CC(C)c1nc2oc3c(NCC4CCCO4)ncnc3c2c2c1CCC2 (stereo unspecified),active: -97.9%
9,O=C(COC(=O)c1ccc(S(=O)(=O)NCc2ccco2)cc1)Nc1ccccc1OC(F)F,active: -101%
10,Cc1ccc(C2=C/C(=C\c3cccnc3)C(=O)O2)cc1,inconclusive: -76.8%
11,CCOC(=O)c1ccc(-c2nnc(-c3ccc(Cl)cc3Cl)o2)cc1,inconclusive: -33%
12,CS(=O)(=O)N(CC(=O)Nc1cccc(F)c1)Cc1ccccc1,inactive: 9.06%
13,CCOc1ccc(C(=S)N2CCCC2)cc1OC,inactive: -6.36%
14,COc1ccc(-n2nc(C(=O)NCC(=O)NCC3CCCO3)c3ccccc3c2=O)c(OC)c1 (stereo unspecified),inconclusive: -33.7%
15,CCn1c(CNc2ccc(OC)cc2)nnc1SCC(=O)c1ccc(OC)cc1,inconclusive: -49.6%
16,COc1ccc(-c2c(-c3ccc(O)cc3O)n[nH]c2C)cc1OC,inconclusive: -40.7%
17,COC(=O)c1sccc1NC(=S)N1CCN(c2cc(C)ccc2C)CC1,inactive: 19.2%
18,CCOC(=O)c1ccc(COc2nc3ccccc3nc2-c2ccccc2NC(C)=O)o1,active: -115%
19,COc1ccc(OCc2cccc(C(=O)Nn3cc([N+](=O)[O-])cn3)c2)cc1,active: -98.6%
20,CC(CCc1ccccc1)NS(=O)(=O)c1ccccc1 (stereo unspecified),inconclusive: -57.6%
21,CN1C(=O)CC(C(=O)Nc2ccc(F)cc2)SC1=Nc1ccc2c(c1)OCO2 (stereo unspecified),inconclusive: -35.1%
22,Cc1cccc(-n2ncc3c(N4CCCC4)ncnc32)c1,inconclusive: -55.6%
23,CCCc1nc(SCC(=O)c2ccc(OC)cc2)c2c(=O)n(C)c(=O)n(C)c2n1,inconclusive: -69.3%

# Reprinted from above, 4 compounds:
row,Structure (SMILES),"activity change (PNC), negative = inhibition"
13,CCOc1ccc(C(=S)N2CCCC2)cc1OC,inactive: -6.36%
14,COc1ccc(-n2nc(C(=O)NCC(=O)NCC3CCCO3)c3ccccc3c2=O)c(OC)c1 (stereo unspecified),inconclusive: -33.7%
15,CCn1c(CNc2ccc(OC)cc2)nnc1SCC(=O)c1ccc(OC)cc1,inconclusive: -49.6%
16,COc1ccc(-c2c(-c3ccc(O)cc3O)n[nH]c2C)cc1OC,inconclusive: -40.7%

# Following part.

row,Structure (SMILES),"activity change (PNC), negative = inhibition"
1,CC1C=Cc2ccccc2N1C(=O)c1ccccc1 (stereo unspecified),inconclusive: -36.9%
2,COc1cc(NC(=O)c2cc3c(C)nc4ccccc4c3o2)cc(OC)c1OC,inactive: 18.1%
3,CCOc1ccc(C(=O)NC(=S)Nc2ccc(N3CCCCC3)cc2)cc1[N+](=O)[O-],inactive: 39%
4,O=C(/C=C/c1ccc(Cl)cc1)N1CCN(c2c(Cl)cccc2[N+](=O)[O-])CC1,inconclusive: -48.2%
5,COC(=O)c1ccc(/C=N/NC(=O)CC(=O)NCC(C)C)cc1,inconclusive: -43.1%
6,CN(C)CCCC1(c2ccc(F)cc2)OCc2cc(C#N)ccc21 (stereo unspecified),active: -115%
7,CC(C)N(C(=O)C[n+]1ccc(/C=N/O)cc1)C(C)C,inactive: -10.3%
8,c1ccc2c(c1)c1ccccc1n2CN1CCOCC1,inconclusive: -42.4%
9,CN(C(=O)c1cnccn1)c1nnc(-c2cnccn2)s1,inconclusive: -31.5%
10,Cc1cc(C)c(S(=O)(=O)N2CCCOC2CNC(=O)C(=O)NCCC2=CCCCC2)c(C)c1 (stereo unspecified),inconclusive: -37.9%
11,Nn1c(Cc2cccc3ccccc23)nnc1SCCOc1ccc(F)cc1,inactive: -22.7%
12,Cc1ccccc1NC(=O)CSc1nc2n(n1)CCCCC2,inconclusive: -36.5%
13,O=C(c1ccc(F)cc1)C1CCN(C(=O)NC2CCCCC2)CC1,inactive: 5.55%
14,C=CCNc1nc(NCCN2CCOCC2)nc(OC)n1,inactive: -22.4%
15,CSc1nc(N)nc(SCC(=O)Nc2cccc(F)c2)c1C#N,inactive: -26.5%
16,COc1ccc(OCCSCc2nnc(NC(=O)Nc3ccc(Cl)cc3)s2)cc1,inactive: -4.22%
17,Cc1ccc2[nH]c(=O)c(CN(C(=O)c3cccs3)c3ccccc3)cc2c1,active: -85.1%
18,Cc1ccc(Cn2c(/C=C/c3ccco3)nc3ccccc32)cc1,inactive: -18.8%
19,Cc1ccc(-c2c(C(=O)NCc3ccc(F)cc3)oc(=O)c3ccccc23)cc1,inconclusive: -49.8%
20,CS(=O)(=O)Nc1ccc(C(=O)NCCSCc2ccco2)cc1,inconclusive: -32.4%
21,O=C(NCC(c1cccs1)N1CCOCC1)c1cc2ccccc2o1 (stereo unspecified),inconclusive: -39.6%
22,Cc1cc(C)c(NC(=O)CSc2nnc(-c3ccncc3)n2Cc2ccco2)c(Cl)c1,inconclusive: -43.7%
23,Nc1c(C2=NCCO2)nnn1Cc1ccccc1,inconclusive: -60.2%

row,Structure (SMILES),"activity change (PNC), negative = inhibition"
1,CCOC(=O)C(Cc1ccccc1)NC(=O)CNC(=O)CNC(=O)OCc1ccccc1 (stereo unspecified),inconclusive: -42.7%
2,O=C1NN(c2ccc(Cl)c(Cl)c2)C(=O)/C1=C/c1cccc(OC(=O)c2cccs2)c1,inactive: 5.72%
3,O=C(COC(=O)Cc1ccccc1F)Nc1ccc2c(c1)OCCO2,inconclusive: -59.5%
4,CCOC(=O)CCc1c(C)c2ccc(OCc3cc([N+](=O)[O-])ccc3OC)c(C)c2oc1=O,inconclusive: -48.6%
5,CCOC(=O)c1c(NC(=O)COC(=O)c2ccccn2)sc2c1CCC2,inactive: -10.8%
6,CCc1ccc(NSc2ccccc2[N+](=O)[O-])cc1,inactive: 45.5%
7,Cc1ccc(NC(=O)COC(=O)CCC(=O)c2ccc(C(C)(C)C)cc2)c([N+](=O)[O-])c1,inactive: 14.1%
8,O=c1cc(/C=C/c2ccccc2)oc2ccccc12,inactive: 27.2%
9,C=CCn1c(SCc2cccc3ccccc23)nnc1-c1cccnc1,inconclusive: -50.3%
10,C1=C(c2ccccc2)Nc2ccccc2N=C1c1ccccc1,inconclusive: -51.9%
11,COc1cc2[nH]c(=S)n(CC3CCCO3)c(=O)c2cc1OC (stereo unspecified),inactive: 20.4%
12,O=C(NCc1ccco1)C1CCN(Cc2ccc(F)cc2)CC1,inconclusive: -79.3%
13,CCOC(=O)C(=O)Nc1ccc2c(c1)OCO2,inconclusive: -75.1%
14,O=C1N/C(=N\N=C\c2cccs2)SC1Cc1cccc(Cl)c1 (stereo unspecified),inconclusive: -47.6%
15,CS(=O)(=O)N(CC(=O)Nc1ccc(F)c(F)c1)c1cccc([N+](=O)[O-])c1,inconclusive: -59.5%
16,Cc1ccc(OCC(O)Cn2c(=N)n(CCN3CCOCC3)c3ccccc32)cc1 (stereo unspecified),inconclusive: -70.8%
17,O=C1c2ccccc2-c2cccc(NS(=O)(=O)c3ccc(C(F)(F)F)cc3)c21,inconclusive: -32.3%
18,COc1ccc(C(=O)NCC(=O)NCC(=O)OCC(=O)C(C)(C)C)cc1,inactive: 0.0578%
19,COCCNc1cc(C)nc2c3c(C)cc(C)nc3nn12,inactive: -5.61%
20,N#Cc1nc(Cc2ccccc2)oc1NCCN1CCOCC1,inactive: -2.3%
21,COc1cc(NC2=Nc3cccc4cccc2c34)cc(OC)c1OC,inconclusive: -72.2%
22,CC(C)CNC(=S)NNC(=O)c1csc2c1CCC(C)C2 (stereo unspecified),inconclusive: -31.8%
23,CS(=O)(=O)N1CCCC(C(=O)NCc2ccccn2)C1 (stereo unspecified),active: -110%

row,Structure (SMILES),"activity change (PNC), negative = inhibition"
1,O=[N+]([O-])c1cccc(CSc2nc3ccccc3[nH]2)c1,inconclusive: -40%
2,CCOc1ccc(C(F)(F)F)cc1NC(=O)c1ccc(OC)c([N+](=O)[O-])c1,inactive: 27.3%
3,O=C1CN(C(=O)c2ccc(Br)o2)C(c2ccccc2)c2cc(Cl)ccc2N1 (stereo unspecified),inactive: -9.46%
4,COC(=O)CNc1nc(OC)nc(N(C)C)n1,inactive: -5.06%
5,CN(C)c1ccc(C(=O)C(O)c2ccc(C(C)(C)C)cc2)cc1 (stereo unspecified),inactive: 6.74%
6,COC(=O)COc1ccc(S(=O)(=O)Nc2ccc(C(N)=O)cc2)cc1C,inactive: -20.6%
7,CCCc1cc(C(=O)OC)c2ccccc2n1,inconclusive: -53.4%
8,CC(=Nc1ccccc1)c1sc2ccccc2c1O,inconclusive: -53.8%
9,O=C(OCC(=O)N1CCCC1)c1ccccc1OCc1ccccc1,inactive: 28.1%
10,CC(C)(NO)/C(=N\O)c1ccc(Cl)cc1,inconclusive: -34.8%
11,O=C(O)c1[nH]c2ccccc2c1NS(=O)(=O)Cc1ccccc1,inconclusive: -50.7%
12,CSCCC(NS(=O)(=O)c1ccc(Cl)cc1)C(=O)OCC(=O)N1CCCc2ccccc21 (stereo unspecified),inconclusive: -40.3%
13,CCCNS(=O)(=O)c1ccc(OCC(=O)OC)cc1,inactive: -27.3%
14,Cc1ccc(NC(=O)c2ccccc2-c2ccc(C(F)(F)F)cc2)cc1S(=O)(=O)N1CCOCC1,inactive: 49.3%
15,O=C(/C=C/c1cn(CC(O)CN2CCCCCC2)c2ccccc12)c1cccs1 (stereo unspecified),inconclusive: -48.9%
16,O=C(Nc1ccccn1)c1ccc([N+](=O)[O-])o1,inconclusive: -35.8%
17,O=C(CSc1nc(SCC(=O)NCc2ccccc2)n(-c2ccccc2)n1)NCc1ccccc1,inactive: -23.1%
18,CCOC(=O)/C(=N/Nc1ccc(Cl)cc1)S(=O)(=O)c1ccccc1,inactive: -23.3%
19,Cc1nn(C(C)C(=O)O)c(=O)c2c1sc1ccccc12 (stereo unspecified),inconclusive: -48.5%
20,COc1cc(NC(=O)COC(=O)CSc2cc(C)ccc2C)c(C)cc1[N+](=O)[O-],inactive: 80.9%
21,O=C(CN(Cc1ccco1)C(=O)CNS(=O)(=O)c1ccccc1)NCc1ccccc1,inconclusive: -35.7%
22,Nc1ccc2c(C(F)(F)F)cc(=O)oc2c1,inconclusive: -47.3%
